# Assay results from the supplement of paper PMC10849652.
# Chains of the proteins cited; added tags and fusions are not shown. Lines headed by an entry give the natural chain unless they say otherwise; changes in a name come on top.
# UniProt Q96QG7: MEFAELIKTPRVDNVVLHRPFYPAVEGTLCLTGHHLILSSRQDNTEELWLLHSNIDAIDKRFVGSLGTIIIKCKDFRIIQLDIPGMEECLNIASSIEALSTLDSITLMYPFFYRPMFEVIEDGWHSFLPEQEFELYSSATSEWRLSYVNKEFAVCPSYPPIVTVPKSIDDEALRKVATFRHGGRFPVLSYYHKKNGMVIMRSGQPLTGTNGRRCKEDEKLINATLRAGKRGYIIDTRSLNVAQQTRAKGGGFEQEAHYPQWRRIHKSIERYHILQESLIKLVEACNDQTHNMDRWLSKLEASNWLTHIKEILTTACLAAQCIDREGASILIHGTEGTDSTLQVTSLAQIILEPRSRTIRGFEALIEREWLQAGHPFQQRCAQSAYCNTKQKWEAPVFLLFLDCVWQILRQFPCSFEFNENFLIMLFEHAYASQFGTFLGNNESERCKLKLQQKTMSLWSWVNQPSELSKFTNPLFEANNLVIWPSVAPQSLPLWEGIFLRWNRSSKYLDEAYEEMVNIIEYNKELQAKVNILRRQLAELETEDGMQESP
# UniProt O94776: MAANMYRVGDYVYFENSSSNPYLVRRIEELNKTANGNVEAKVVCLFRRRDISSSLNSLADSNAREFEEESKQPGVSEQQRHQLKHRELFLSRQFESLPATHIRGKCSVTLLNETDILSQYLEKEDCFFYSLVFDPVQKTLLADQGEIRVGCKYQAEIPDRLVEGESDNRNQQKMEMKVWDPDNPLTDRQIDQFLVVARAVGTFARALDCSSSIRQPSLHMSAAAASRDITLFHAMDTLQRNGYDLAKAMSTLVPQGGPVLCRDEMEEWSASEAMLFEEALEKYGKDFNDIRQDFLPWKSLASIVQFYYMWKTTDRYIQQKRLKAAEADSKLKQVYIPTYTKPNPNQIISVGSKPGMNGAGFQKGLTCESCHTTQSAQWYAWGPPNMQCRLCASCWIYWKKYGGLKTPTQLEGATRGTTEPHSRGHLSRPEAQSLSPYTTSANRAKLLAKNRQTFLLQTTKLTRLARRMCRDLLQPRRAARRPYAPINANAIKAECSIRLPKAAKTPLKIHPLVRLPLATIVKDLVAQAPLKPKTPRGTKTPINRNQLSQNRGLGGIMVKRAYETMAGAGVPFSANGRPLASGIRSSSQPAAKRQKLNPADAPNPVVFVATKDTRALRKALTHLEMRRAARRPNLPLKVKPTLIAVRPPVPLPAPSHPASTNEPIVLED
# UniProt Q9C0I1: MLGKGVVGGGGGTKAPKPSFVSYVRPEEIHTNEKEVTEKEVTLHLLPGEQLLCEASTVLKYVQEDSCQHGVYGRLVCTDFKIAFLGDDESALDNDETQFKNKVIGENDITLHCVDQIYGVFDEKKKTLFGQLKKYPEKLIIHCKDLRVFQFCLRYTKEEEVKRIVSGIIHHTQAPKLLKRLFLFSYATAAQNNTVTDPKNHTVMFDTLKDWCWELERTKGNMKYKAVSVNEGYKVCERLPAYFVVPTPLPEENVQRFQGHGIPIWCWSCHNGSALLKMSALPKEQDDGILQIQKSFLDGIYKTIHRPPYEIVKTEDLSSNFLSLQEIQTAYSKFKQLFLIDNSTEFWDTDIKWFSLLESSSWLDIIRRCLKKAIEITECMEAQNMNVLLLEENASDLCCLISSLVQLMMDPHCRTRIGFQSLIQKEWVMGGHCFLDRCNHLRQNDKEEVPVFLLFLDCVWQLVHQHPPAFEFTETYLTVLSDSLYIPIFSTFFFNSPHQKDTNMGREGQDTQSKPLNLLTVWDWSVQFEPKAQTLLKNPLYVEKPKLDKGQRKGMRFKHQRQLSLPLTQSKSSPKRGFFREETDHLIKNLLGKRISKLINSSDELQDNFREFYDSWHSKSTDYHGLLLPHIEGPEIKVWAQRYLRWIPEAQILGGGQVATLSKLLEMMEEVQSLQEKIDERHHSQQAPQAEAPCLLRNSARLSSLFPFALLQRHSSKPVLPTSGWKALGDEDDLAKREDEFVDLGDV
# UniProt Q68DK7: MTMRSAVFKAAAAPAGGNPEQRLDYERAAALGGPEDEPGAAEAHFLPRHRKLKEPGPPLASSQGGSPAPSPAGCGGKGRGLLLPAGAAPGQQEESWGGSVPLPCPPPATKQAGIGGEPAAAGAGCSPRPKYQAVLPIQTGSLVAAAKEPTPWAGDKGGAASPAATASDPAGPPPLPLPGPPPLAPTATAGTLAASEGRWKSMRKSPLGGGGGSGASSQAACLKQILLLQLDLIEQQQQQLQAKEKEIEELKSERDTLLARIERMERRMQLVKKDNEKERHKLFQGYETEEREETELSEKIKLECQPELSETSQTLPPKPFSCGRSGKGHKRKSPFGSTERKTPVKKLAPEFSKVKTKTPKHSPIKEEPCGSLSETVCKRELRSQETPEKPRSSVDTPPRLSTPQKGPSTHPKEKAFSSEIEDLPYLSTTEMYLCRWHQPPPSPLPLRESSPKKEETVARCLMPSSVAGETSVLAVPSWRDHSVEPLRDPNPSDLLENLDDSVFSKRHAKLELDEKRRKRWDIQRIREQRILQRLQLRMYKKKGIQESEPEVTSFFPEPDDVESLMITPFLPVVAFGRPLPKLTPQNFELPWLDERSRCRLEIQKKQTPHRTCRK
# UniProt P00156: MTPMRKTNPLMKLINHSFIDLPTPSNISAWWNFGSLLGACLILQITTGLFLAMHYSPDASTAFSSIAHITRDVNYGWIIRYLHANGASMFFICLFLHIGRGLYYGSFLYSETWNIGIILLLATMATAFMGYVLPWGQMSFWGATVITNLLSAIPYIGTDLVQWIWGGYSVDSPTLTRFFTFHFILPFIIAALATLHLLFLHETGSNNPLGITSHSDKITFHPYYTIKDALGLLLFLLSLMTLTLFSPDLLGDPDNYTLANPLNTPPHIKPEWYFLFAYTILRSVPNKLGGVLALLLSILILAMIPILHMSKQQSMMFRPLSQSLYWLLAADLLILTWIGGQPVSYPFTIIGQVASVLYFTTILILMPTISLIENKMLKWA
# UniProt Q13330: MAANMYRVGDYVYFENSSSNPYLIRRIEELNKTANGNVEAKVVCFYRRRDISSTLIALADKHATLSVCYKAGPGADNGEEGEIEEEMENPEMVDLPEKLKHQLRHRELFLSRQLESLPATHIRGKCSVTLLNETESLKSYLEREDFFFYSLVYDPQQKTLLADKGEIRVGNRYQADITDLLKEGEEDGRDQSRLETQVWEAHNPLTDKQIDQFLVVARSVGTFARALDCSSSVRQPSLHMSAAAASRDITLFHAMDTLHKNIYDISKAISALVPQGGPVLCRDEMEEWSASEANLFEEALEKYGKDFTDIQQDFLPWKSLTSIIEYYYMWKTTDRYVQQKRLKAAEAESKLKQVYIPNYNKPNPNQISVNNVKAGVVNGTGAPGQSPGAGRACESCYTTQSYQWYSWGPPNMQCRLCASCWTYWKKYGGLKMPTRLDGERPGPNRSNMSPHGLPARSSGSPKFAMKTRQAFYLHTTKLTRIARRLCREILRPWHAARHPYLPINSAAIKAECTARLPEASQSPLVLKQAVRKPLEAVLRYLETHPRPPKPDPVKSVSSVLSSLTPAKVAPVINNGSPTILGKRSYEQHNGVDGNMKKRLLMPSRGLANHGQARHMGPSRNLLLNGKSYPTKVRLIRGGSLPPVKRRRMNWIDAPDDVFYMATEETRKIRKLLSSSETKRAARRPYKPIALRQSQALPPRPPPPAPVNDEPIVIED
# UniProt Q96E29: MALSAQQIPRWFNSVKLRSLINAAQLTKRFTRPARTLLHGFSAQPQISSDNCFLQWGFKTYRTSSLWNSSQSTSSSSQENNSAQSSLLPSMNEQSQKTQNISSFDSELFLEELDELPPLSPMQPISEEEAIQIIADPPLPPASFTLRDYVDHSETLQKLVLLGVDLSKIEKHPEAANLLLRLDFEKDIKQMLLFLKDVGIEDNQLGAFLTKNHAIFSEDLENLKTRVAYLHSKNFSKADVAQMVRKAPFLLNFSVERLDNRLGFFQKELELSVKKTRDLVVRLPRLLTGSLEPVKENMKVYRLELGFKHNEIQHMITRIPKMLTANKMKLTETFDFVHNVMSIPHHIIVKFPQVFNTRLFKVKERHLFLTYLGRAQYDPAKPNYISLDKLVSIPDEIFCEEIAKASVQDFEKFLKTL
# The list shows a part of the results.
# Assays:
# Assay in all cases: log2 fold change, soluble protein after heating vs DMSO (PISA); higher = thermal stabilisation; K562 lysate, 10 uM; active = over 0.2 and 3.5 SD of the protein, either way, in both replicates (recomputed)
# [1] = compound: CCCS(=O)(=O)Nc1ccc(F)c(C(=O)c2c[nH]c3ncc(-c4ccc(Cl)cc4)cc23)c1F [vemurafenib]
# Outline: (§1)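 Dounce homogenisation of K562 pellets in PBS pH 7.4 with 1 mM MgCl2 produced a crude extract, used at 1 mg/mL protein. Exposure to 10 μM compound lasted 30 min, and aliquots were then heated for 3 min across 48°C-58°C, pooled and brought to 0.5% NP-40 at 4°C. The supernatant after 21,000xg for 90 min was quantified by TMTpro 16plex LC-MS/MS with channel sums equalised. Duplicate values are given as log-two fold change in thermal stability relative to solvent controls.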
# [2] = compound: CCCS(=O)(=O)Nc1ccc(F)c(C(=O)c2c[nH]c3ncc(Cl)cc23)c1F
# Outline: as §1
# [3] = compound: CCN(CCCOc1ccc2c(Nc3cc(CC(=O)Nc4cccc(F)c4)[nH]n3)ncnc2c1)CCOP(=O)(O)O [barasertib]
# Outline: as §1
# [4] = compound: CC[C@@H]1C(=O)N(C)c2cnc(Nc3ccc(C(=O)NC4CCN(C)CC4)cc3OC)nc2N1C1CCCC1
# Outline: as §1
# [5] = compound: CC[C@@H]1C(=O)N(C)c2cnc(Nc3ccc(C(=O)N[C@H]4CC[C@H](N5CCN(CC6CC6)CC5)CC4)cc3OC)nc2N1C(C)C [volasertib]
# Outline: as §1
# [6] = compound: CCn1c(C(=O)N(C2CC2)C2CC2)cc2c3c(ncn3C)c(Nc3cc(C)n(C)n3)nc21
# Outline: as §1
# [7] = compound: CCn1cc(-c2ccnc3[nH]c(-c4cccc(CN(C)C)c4)cc23)c(-c2ccc(NC(=O)N(C)C)cc2)n1
# Outline: as §1
# [8] = compound: CN1CCC(CNc2ccc3ncc(-c4cccc(OC(F)(F)F)c4)n3n2)CC1
# Outline: as §1
# [9] = compound: CN1CCN(CCOc2cc(OC3CCOCC3)c3c(Nc4c(Cl)ccc5c4OCO5)ncnc3c2)CC1 [saracatinib]
# Outline: as §1
# [10] = compound: CN1CCN(c2nc(C3=C(c4c[nH]c5ccccc45)C(=O)NC3=O)c3ccccc3n2)CC1 [sotrastaurin]
# Outline: as §1
# [11] = compound: CN1CC[C@H](c2c(O)cc(O)c3c(=O)cc(-c4ccccc4Cl)oc23)[C@H](O)C1 [alvocidib]
# Outline: as §1
# [12] = compound: CN1CCc2c(c3ccccc3n2Cc2ccc(C(=O)NO)cc2)C1 [Tubastatin A]
# Outline: as §1
# [13] = compound: CNC(=O)C1=CC=CC=C1NC2=NC(=NC=C2Cl)NC3=C(C=C(C=C3)N4CCOCC4)OC
# Outline: as §1
# [14] = compound: CNC(=O)c1ccc(Nc2ncc(C(F)(F)F)c(NCc3nccnc3N(C)S(C)(=O)=O)n2)cc1 [defactinib]
# Outline: as §1
# [15] = compound: CNc1nc(-c2ccc3c(N)n[nH]c3c2)cc(N2C[C@@H](C(=O)NC3CCCCC3)CC[C@H]2C)n1
# Outline: as §1
# [16] = compound: COC(=O)N[C@@H](C)CNc1nccc(-c2cn(C(C)C)nc2-c2cc(Cl)cc(NS(C)(=O)=O)c2F)n1 [encorafenib]
# Outline: as §1
# [17] = compound: COC(=O)[C@H](CCSC)NC(=O)C1=C(C=C(C=C1)NC[C@H](CS)N)C2=CC=CC=C2
# Outline: as §1
# [18] = compound: COc1cc(Nc2ncc3c(n2)-c2ccc(Cl)cc2C(c2c(F)cccc2OC)=NC3)ccc1C(=O)O [alisertib]
# Outline: as §1
# [19] = compound: COc1cc2nc(-c3cc(F)ccc3O)nc(N[C@@H]3CNC[C@H]3C(C)(C)O)c2cc1OC
# Outline: as §1
# [20] = compound: COc1cc2ncnc(Nc3ccc(F)c(Cl)c3)c2cc1OCCCN1CCOCC1 [gefitinib]
# Outline: as §1
Target,log2 fold change [1],log2 fold change [2],log2 fold change [3],log2 fold change [4],log2 fold change [5],log2 fold change [6],log2 fold change [7],log2 fold change [8],log2 fold change [9],log2 fold change [10],log2 fold change [11],log2 fold change [12],log2 fold change [13],log2 fold change [14],log2 fold change [15],log2 fold change [16],log2 fold change [17],log2 fold change [18],log2 fold change [19],log2 fold change [20]
MRPS22 (UniProt P82650),inactive: 0.077,inactive: 0.06,inactive: 0.068,inactive: -0.056,inactive: -0.038,inactive: -0.015,inactive: 0.013,inactive: -0.074,inactive: 0.006,inactive: 0.069,inactive: 0.006,inactive: -0.04,inactive: -0.005,inactive: 0.003,inactive: 0.038,inactive: 0.04,inactive: 0.074,inactive: -0.067,inactive: -0.017,inactive: -0.12
MTMR9 (UniProt Q96QG7),inactive: -0.039,inactive: 0.025,inactive: -0.004,inactive: 0.064,inactive: -0.045,inactive: -0.036,inactive: -0.052,inactive: 0.052,inactive: 0.029,inactive: 0.048,inactive: 0,inactive: 0.031,inactive: 0.016,inactive: 0.037,inactive: 0.071,inactive: 0.024,inactive: 0.047,inactive: -0.025,inactive: 0.055,inactive: 0.027
MRPL51 (UniProt Q4U2R6),inactive: 0.032,inactive: 0.028,inactive: 0,inactive: -0.044,inactive: 0.022,inactive: 0.038,inactive: -0.309,inactive: 0.16,inactive: 0.02,inactive: 0.008,inactive: -0.039,inactive: -0.018,inactive: 0.016,inactive: 0.198,inactive: -0.002,inactive: 0.088,inactive: -0.208,inactive: -0.005,inactive: -0.005,inactive: -0.044
MTA2 (UniProt O94776),inactive: 0.007,inactive: 0.018,inactive: 0.026,inactive: 0.03,inactive: -0.008,inactive: 0.025,inactive: -0.021,inactive: -0.031,inactive: 0.015,inactive: 0.042,inactive: 0.005,inactive: -0.049,inactive: -0.002,inactive: 0.016,inactive: -0.01,inactive: 0.009,inactive: 0.134,inactive: 0.012,inactive: -0.005,inactive: -0.02
MTMR12 (UniProt Q9C0I1),inactive: 0.005,inactive: 0.041,inactive: 0.023,inactive: 0.01,inactive: 0.025,inactive: 0.01,inactive: -0.028,inactive: 0.019,inactive: 0.02,inactive: 0.058,inactive: -0.003,inactive: 0.006,inactive: 0.006,inactive: 0.005,inactive: 0.056,inactive: 0.02,inactive: 0.007,inactive: -0.014,inactive: 0.013,inactive: -0.004
MRTO4 (UniProt Q9UKD2),inactive: -0.025,inactive: 0.011,inactive: -0.003,inactive: -0.029,inactive: -0.007,inactive: 0.011,inactive: -0.084,inactive: 0.01,inactive: -0.001,inactive: 0,inactive: 0.002,inactive: 0.021,inactive: -0.018,inactive: 0.005,inactive: -0.054,inactive: 0.014,inactive: 0.027,inactive: 0.026,inactive: 0.004,inactive: 0
MSL1 (UniProt Q68DK7),inactive: 0.088,inactive: -0.012,inactive: -0.06,inactive: -0.065,inactive: 0.062,inactive: -0.169,inactive: -0.174,inactive: 0.093,inactive: -0.018,inactive: 0.048,inactive: -0.115,inactive: 0.109,inactive: -0.018,inactive: -0.144,inactive: 0.107,inactive: 0.161,inactive: 0.094,inactive: 0.021,inactive: 0.104,inactive: 0.03
MRPL55 isoform 2 (UniProt Q7Z7F7),inactive: -0.069,inactive: 0.133,inactive: -0.019,inactive: 0.074,inactive: 0.063,inactive: -0.002,inactive: -0.003,inactive: 0.058,inactive: -0.071,inactive: -0.044,inactive: -0.154,inactive: -0.029,inactive: 0.047,inactive: -0.047,inactive: 0.036,inactive: -0.025,inactive: 0.021,inactive: 0.06,inactive: -0.057,inactive: 0.084
MT-CYB (UniProt P00156),inactive: 0.004,inactive: -0.03,inactive: -0.054,inactive: 0,inactive: 0.056,inactive: -0.097,active: -0.993,active: 0.521,inactive: 0.047,inactive: 0.027,inactive: -0.326,inactive: 0.078,inactive: -0.027,inactive: 0.091,inactive: 0.129,inactive: 0.036,inactive: -0.093,inactive: -0.131,inactive: 0.062,inactive: 0.102
MTA1 (UniProt Q13330),inactive: -0.022,inactive: 0.011,inactive: 0.008,inactive: -0.005,inactive: -0.007,inactive: -0.003,inactive: 0.013,inactive: -0.061,inactive: 0.018,inactive: 0.036,inactive: 0.007,inactive: -0.045,inactive: 0.013,inactive: 0.008,inactive: -0.01,inactive: -0.005,inactive: 0.098,inactive: -0.026,inactive: 0.023,inactive: -0.023
MTERF3 (UniProt Q96E29),inactive: 0.043,inactive: -0.063,inactive: 0.063,inactive: -0.059,inactive: 0.033,inactive: -0.134,inactive: -0.039,inactive: -0.082,inactive: 0.072,inactive: -0.008,inactive: 0,inactive: 0.023,inactive: 0.009,inactive: 0.041,inactive: 0.021,inactive: 0.129,inactive: 0.045,inactive: 0.004,inactive: 0.101,inactive: 0.029
MRPL3 (UniProt P09001),inactive: 0.064,inactive: 0.013,inactive: -0.004,inactive: -0.001,inactive: -0.009,inactive: 0.007,inactive: -0.199,inactive: 0.042,inactive: -0.068,inactive: 0.023,inactive: 0,inactive: -0.059,inactive: -0.003,inactive: 0.015,inactive: 0.099,inactive: 0.036,inactive: 0.05,inactive: 0.057,inactive: -0.025,inactive: -0.028
MRPS34 (UniProt P82930),inactive: 0.053,inactive: 0.053,inactive: 0.041,inactive: -0.07,inactive: 0.014,inactive: 0.033,inactive: 0.024,inactive: -0.022,inactive: -0.002,inactive: 0.02,inactive: 0.015,inactive: -0.089,inactive: 0.012,inactive: 0.038,inactive: 0.009,inactive: 0.024,inactive: -0.006,inactive: 0.001,inactive: -0.082,inactive: -0.012
MRPL47 (UniProt Q9HD33),inactive: -0.01,inactive: 0.02,inactive: 0.07,inactive: -0.016,inactive: -0.099,inactive: 0.068,inactive: 0.035,inactive: -0.037,inactive: -0.007,inactive: 0.041,inactive: 0.018,inactive: -0.057,inactive: 0.038,inactive: 0.026,inactive: 0.007,inactive: 0.067,inactive: -0.066,inactive: -0.06,inactive: -0.075,inactive: 0.269
MRPS16 (UniProt Q9Y3D3),inactive: 0.038,inactive: 0.062,inactive: -0.052,inactive: -0.064,inactive: -0.092,inactive: 0.028,inactive: 0.592,inactive: -0.057,inactive: 0.045,inactive: 0.014,inactive: 0.039,inactive: -0.068,inactive: 0.015,inactive: -0.034,inactive: 0.057,inactive: 0.037,inactive: -0.117,inactive: -0.014,inactive: -0.042,inactive: -0.008
MRPL38 (UniProt Q96DV4),inactive: 0.024,inactive: -0.032,inactive: -0.015,inactive: -0.064,inactive: -0.114,inactive: 0.058,inactive: 0.005,inactive: -0.036,inactive: 0.046,inactive: 0.02,inactive: 0.038,inactive: -0.035,inactive: 0.039,inactive: 0.01,inactive: 0.008,inactive: 0.039,inactive: 0.036,inactive: 0.02,inactive: 0.006,inactive: -0.038

# Whole records, quoted from the list. Values in the order: log2 fold change [1] | log2 fold change [2] | log2 fold change [3] | log2 fold change [4] | log2 fold change [5] | log2 fold change [6] | log2 fold change [7] | log2 fold change [8] | log2 fold change [9] | log2 fold change [10] | log2 fold change [11] | log2 fold change [12] | log2 fold change [13] | log2 fold change [14] | log2 fold change [15] | log2 fold change [16] | log2 fold change [17] | log2 fold change [18] | log2 fold change [19] | log2 fold change [20]
# MRPL51 (UniProt Q4U2R6) is entered as inactive: 0.032 | inactive: 0.028 | inactive: 0 | inactive: -0.044 | inactive: 0.022 | inactive: 0.038 | inactive: -0.309 | inactive: 0.16 | inactive: 0.02 | inactive: 0.008 | inactive: -0.039 | inactive: -0.018 | inactive: 0.016 | inactive: 0.198 | inactive: -0.002 | inactive: 0.088 | inactive: -0.208 | inactive: -0.005 | inactive: -0.005 | inactive: -0.044
# MRPS34 (UniProt P82930) is entered as inactive: 0.053 | inactive: 0.053 | inactive: 0.041 | inactive: -0.07 | inactive: 0.014 | inactive: 0.033 | inactive: 0.024 | inactive: -0.022 | inactive: -0.002 | inactive: 0.02 | inactive: 0.015 | inactive: -0.089 | inactive: 0.012 | inactive: 0.038 | inactive: 0.009 | inactive: 0.024 | inactive: -0.006 | inactive: 0.001 | inactive: -0.082 | inactive: -0.012
